Test results: PubChem BioAssay AID587 (National Center for Advancing Translational Sciences (NCATS), 2007)
Screen size: about 59,000 compounds; about 35 (0.06%) were called active. This list was built around the results that the source calls inconclusive (neither active nor inactive); the mix of calls is not that of the screen. Rule as the data show it: active = max dye-equivalent concentration above about 10 nM; inconclusive = between about 1.1 nM and that limit; inactive = weaker than that.

assay: qHTS Assay for Spectroscopic Profiling in Texas Red Spectral Region; details: Compound fluorescence, Texas Red channel, 547/618 nm; stronger effect = higher value
Method in brief: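 Texas Red-region profiling: compounds in 100 mM Tris pH 8.0 were read at 547/618 nm after 15 min at room temperature. Intensities were normalized against a six-point Texas Red standard series to give dye-equivalent concentration.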

**Q.** Which max dye-equivalent concentration does the source give for `COc1ccc(C(c2nnnn2CC2CCCO2)N2CCN(c3ccc(F)cc3)CC2)cc1` (configuration not stated) here?
**A.** inconclusive: 1.2 nM

**Q.** For `COc1cccc(/C(O)=C2/C(=O)C(=O)N(CCN(C)C)C2c2ccccn2)c1` (configuration not stated), which max dye-equivalent concentration is on record?
**A.** inconclusive: 1.1 nM

**Q.** For `N/C(CN1CCCC1=O)=N\O`, which max dye-equivalent concentration is on record?
**A.** inconclusive: 1.5 nM

**Q.** For `c1ccc(CC2CNc3ccccc3CN2)cc1` (configuration not stated), which max dye-equivalent concentration is on record?
**A.** inconclusive: 1.9 nM

**Q.** For `CCOC(=O)CCC(=O)O[C@H]1[C@H](O[C@@H]2[C@@H](C)[C@H](O[C@H]3C[C@@](C)(OC)[C@@H](O)[C@H](C)O3)[C@@H](C)C(=O)O[C@H](CC)[C@@](C)(O)[C@H](O)[C@@H](C)C(=O)[C@H](C)C[C@@]2(C)O)O[C@H](C)C[C@@H]1N(C)C`, which max dye-equivalent concentration is on record?
**A.** inconclusive: 1.4 nM

**Q.** Which max dye-equivalent concentration does the source give for `CC1=C(C(=O)OC(C)C)C(c2cccc(F)c2)N2C(=O)C(C)SC2=N1` (configuration not stated) here?
**A.** inconclusive: 1.6 nM

**Q.** With `COc1cccc2c1C(=O)c1c(O)c3c(c(O)c1C2=O)C[C@](O)(C(C)=O)C[C@H]3O[C@@H]1C[C@H](N)[C@H](O)[C@H](C)O1` as the molecule, how does the max dye-equivalent concentration read?
**A.** active: 59 nM

**Q.** With `COc1cc(/C=C\C(=O)N2CCCCC2=O)cc(OC)c1OC` as the molecule, how does the max dye-equivalent concentration read?
**A.** inactive

**Q.** With `COC(=O)c1[nH]c2ccc(F)cc2c1NC(=O)C1=COCCO1` as the molecule, how does the max dye-equivalent concentration read?
**A.** inconclusive: 1.5 nM

**Q.** Which max dye-equivalent concentration does the source give for `O=C(Cc1ccccc1)CC1(O)C(=O)Nc2ccccc21` (configuration not stated) here?
**A.** inconclusive: 1.1 nM

**Q.** For `COCCn1c(COc2ccccc2)nnc1SCC(N)=O`, which max dye-equivalent concentration is on record?
**A.** inconclusive: 1.9 nM

**Q.** Which max dye-equivalent concentration does the source give for `CC(=O)N1CCc2cc(S(=O)(=O)NC(CC(C)C)C(=O)Nc3cc(C)ccn3)ccc21` (configuration not stated) here?
**A.** inconclusive: 2 nM

**Q.** For `Cc1c(C)[n+](=O)c(-c2cccs2)c(C)n1[O-]`, which max dye-equivalent concentration is on record?
**A.** inconclusive: 1.1 nM

**Q.** With `CC(=O)O[C@]1(C)N=NC2(CCCCC2)O1` as the molecule, how does the max dye-equivalent concentration read?
**A.** inactive

**Q.** For `CN(C)C=Nc1nonc1-c1ncn[nH]1`, which max dye-equivalent concentration is on record?
**A.** inactive

**Q.** Which max dye-equivalent concentration does the source give for `O=C(CSc1nc2c(c(=O)n1-c1ccc(Br)cc1)SCC2)Nc1nccs1` here?
**A.** inconclusive: 1.1 nM

**Q.** For `CCCCNC(=O)c1ccc2c(c1)N(CC)C(=O)CS2`, which max dye-equivalent concentration is on record?
**A.** inconclusive: 1.6 nM

**Q.** With `C=CCn1c(SCC(=O)Nc2cc(C)nn2-c2ccccc2)nnc1C1CCCCC1` as the molecule, how does the max dye-equivalent concentration read?
**A.** inconclusive: 1.1 nM

**Q.** With `COc1cc(Cl)cc(NC(=O)CCN2CCN(C)CC2)c1` as the molecule, how does the max dye-equivalent concentration read?
**A.** inconclusive: 1.2 nM

**Q.** For `CCCCOn1c(C)c(C(=O)OCC)c2c3nonc3ccc21`, which max dye-equivalent concentration is on record?
**A.** inconclusive: 1.5 nM

**Q.** Which max dye-equivalent concentration does the source give for `c1ccc(NC(=NCc2ccco2)c2ccccc2)cc1` here?
**A.** inconclusive: 1.3 nM

**Q.** Which max dye-equivalent concentration does the source give for `C=CCSc1nc2c(c(=O)n(C)c(=O)n2C)n1CC` here?
**A.** inconclusive: 1.1 nM

**Q.** Which max dye-equivalent concentration does the source give for `COc1ccc(-n2nc(C(=O)N3CCN(Cc4ccc5c(c4)OCO5)CC3)c3ccccc3c2=O)cc1` here?
**A.** inconclusive: 1.2 nM

**Q.** With `COc1ccc(-n2nnc3c(=O)n(Cc4ccccc4C)cnc32)cc1` as the molecule, how does the max dye-equivalent concentration read?
**A.** inconclusive: 1.3 nM

**Q.** With `O=C(c1cc2c(=O)oc3ccccc3c2s1)N1CCOCC1` as the molecule, how does the max dye-equivalent concentration read?
**A.** inconclusive: 1.4 nM

**Q.** With `Cc1nc2nc(-c3cccnc3)nn2c(C)c1Cl` as the molecule, how does the max dye-equivalent concentration read?
**A.** inconclusive: 1.8 nM

**Q.** For `CCn1c(Cc2ccccc2)nnc1SCC(=O)Nc1cc(C)on1`, which max dye-equivalent concentration is on record?
**A.** inconclusive: 1.3 nM

**Q.** With `Cc1noc(/C=C/c2ccco2)c1S(=O)(=O)N1CCC(C(=O)N2c3ccccc3CC2C)CC1` (configuration not stated) as the molecule, how does the max dye-equivalent concentration read?
**A.** inconclusive: 1.4 nM

**Q.** Which max dye-equivalent concentration does the source give for `CCCCC/C=C\C[C@H](O)/C=C\c1cccc(C[C@H](O)CCCCO)n1` here?
**A.** inactive

**Q.** For `Nc1ccc(N(S(=O)(=O)c2ccccc2)S(=O)(=O)c2ccccc2)c(Cl)c1`, which max dye-equivalent concentration is on record?
**A.** inactive

**Q.** With `CC12CCC(C(=O)N(c3ccccn3)c3ccccn3)(OC1=O)C2(C)C` (configuration not stated) as the molecule, how does the max dye-equivalent concentration read?
**A.** inconclusive: 1.5 nM

**Q.** With `Cc1cc(=O)oc2cc3c(cc12)OCCO3` as the molecule, how does the max dye-equivalent concentration read?
**A.** inconclusive: 1.3 nM

**Q.** Which max dye-equivalent concentration does the source give for `COc1ccc(/C(O)=C2/C(=O)C(=O)N(CCCN(C)C)C2c2ccco2)cc1Cl` (configuration not stated) here?
**A.** inactive

**Q.** For `CCOC(=O)c1nc(-c2ccccc2)oc1N(C)C`, which max dye-equivalent concentration is on record?
**A.** inconclusive: 1.4 nM

**Q.** With `O=c1c(-c2ccc(F)c(F)c2)nc2cncnc2n1Cc1ccccc1Cl` as the molecule, how does the max dye-equivalent concentration read?
**A.** inconclusive: 1.2 nM

**Q.** Which max dye-equivalent concentration does the source give for `O=S(=O)(c1ccc(Cl)c(F)c1)N1CCC(c2nc(-c3ccncc3)no2)CC1` here?
**A.** inconclusive: 1.5 nM

**Q.** Which max dye-equivalent concentration does the source give for `COc1ccc(Cl)cc1NC(=O)c1ocnc1C` here?
**A.** inconclusive: 1.3 nM

**Q.** For `COc1cccc(-n2nnc3c(=O)n(CC(=O)N4CCCc5ccccc54)cnc32)c1`, which max dye-equivalent concentration is on record?
**A.** inconclusive: 1.7 nM

**Q.** For `CCC(=O)O[C@@]1(C(=O)SCF)[C@@H](C)C[C@H]2[C@@H]3C[C@@H](F)C4=CC(=O)C=C[C@@]4(C)[C@]3(F)[C@@H](O)C[C@]21C`, which max dye-equivalent concentration is on record?
**A.** inconclusive: 1.1 nM

**Q.** For `Oc1cccc2ccc(SSc3ccc4cccc(O)c4n3)nc12`, which max dye-equivalent concentration is on record?
**A.** inactive

**Q.** With `COc1ccc(NC(=O)CSc2nnc(Cc3cccn3C)n2CCc2ccccc2)c(OC)c1` as the molecule, how does the max dye-equivalent concentration read?
**A.** inconclusive: 1.3 nM

**Q.** Which max dye-equivalent concentration does the source give for `O=C(O)C1CCCN1C(=O)Nc1ccc(F)cc1` (configuration not stated) here?
**A.** inconclusive: 1.3 nM

**Q.** Which max dye-equivalent concentration does the source give for `CCN(CC)S(=O)(=O)c1cccc(-c2nnc(SCC#N)n2Cc2ccccc2)c1` here?
**A.** inconclusive: 2.3 nM

**Q.** With `Nc1nc2c(c(=O)[nH]1)N[C@H](CCNc1ccc(C(=O)O)cc1)CN2` as the molecule, how does the max dye-equivalent concentration read?
**A.** inactive

**Q.** With `COC(=O)c1ccccc1NC(=O)CN(Cc1ccccc1)S(C)(=O)=O` as the molecule, how does the max dye-equivalent concentration read?
**A.** inconclusive: 1.1 nM

**Q.** With `CCOC(=O)N1CCN(C(=O)CN(C)S(=O)(=O)c2ccc3c(c2)C(C)(C)C(=O)N3C)CC1` as the molecule, how does the max dye-equivalent concentration read?
**A.** inconclusive: 1.6 nM

**Q.** Which max dye-equivalent concentration does the source give for `C=CCc1cccc(CNc2c(C)n(C)n(-c3ccccc3)c2=O)c1O` here?
**A.** inconclusive: 1.2 nM

**Q.** With `O=C(CCCCCN1C(=O)CCC1=O)NCc1ccccc1` as the molecule, how does the max dye-equivalent concentration read?
**A.** inconclusive: 1.2 nM

**Q.** With `Cc1cccc(-c2nnc(SCc3cc(=O)[nH]c4ccccc34)n2C)c1` as the molecule, how does the max dye-equivalent concentration read?
**A.** inconclusive: 1.1 nM

**Q.** For `Cc1oc2c(CN3CCOCC3)c(O)ccc2c(=O)c1-c1ccccc1`, which max dye-equivalent concentration is on record?
**A.** inconclusive: 1.1 nM

**Q.** With `O=C(CCc1c[nH]c2ccccc12)NCC1CCCO1` (configuration not stated) as the molecule, how does the max dye-equivalent concentration read?
**A.** inconclusive: 1.8 nM

**Q.** For `CCN(CC)c1ccc(NC(=O)c2cncc(Br)c2)cc1`, which max dye-equivalent concentration is on record?
**A.** inconclusive: 1.3 nM
